Data: patent US8080647B2 (priority 2006, dated 2011)
At least one compound was matched to its structure with a doubt left.

Chains of the proteins cited; added tags and fusions are not shown. A line that says so, or that is headed by a name, gives the form on record, which may keep a tag or linker.
UniProt P04483, other isoform, or with tags, fused parts or gaps: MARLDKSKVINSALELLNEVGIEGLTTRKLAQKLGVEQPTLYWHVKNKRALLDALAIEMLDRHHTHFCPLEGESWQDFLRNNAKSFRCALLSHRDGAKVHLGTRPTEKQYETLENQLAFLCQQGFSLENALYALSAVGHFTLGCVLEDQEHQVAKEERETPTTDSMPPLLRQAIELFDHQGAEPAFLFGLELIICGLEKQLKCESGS

Molecular target: T1, tetracycline repressor (Escherichia coli, UniProt P04483)
T1 construct: expressed in transfected cells; host or cells: Zea mays Hi-II callus and regenerated plants, stably transformed via Agrobacterium (ubi pro::moTetR)
Type: cell-based, E. coli
Details: PHP24683 maize events

`C[C@H]1c2cccc(O)c2C(=O)C2=C(O)[C@]3(O)C(=O)C(C(N)=O)=C(O)[C@@H](N(C)C)[C@@H]3[C@@H](O)[C@@H]21` [doxycycline] was tested, and the “lowest inducer concentration at which red fluorescence was detected by microscopic evaluation” value was 0.025 mg/L.
